No constants are given. Whether binding was seen depends on the method and setting. Some results given as binding are weak or reduced against the parent protein; the word gives no strength.
B1: artificially bound protein Seq1 (designed binder)
chain: AEAKYNDEMRITYWEIALFAPLENEHKRAYIRRLYDDPSRADELEEKAELEAKAMAQG
B2: artificially bound protein Seq2 (designed binder)
chain: AEAKYNEEMRITYWAIALFAPLENEHKRAYIRRLYDDPSRADELEEKAELEAQAMAQG
B3: artificially bound protein Seq3 (designed binder)
chain: AEAKYNDEMRITYWHIALFAPLENEHKRAYIRRLYDDPSRADELEEKARLEAKAMAQG
B4: artificially bound protein Seq4 (designed binder)
chain: AEAKYNDEMRITYWEIALFQALENEHKRAYIRRLYDDPSRADELEEKAELEAKAMAQG
B5: artificially bound protein Seq5 (designed binder)
chain: AEAKYNEEMRITYWAIALFQALENEHKRAYIRRLYDDPSRADELEEKAELEAQAMAQG

What follows are binders tested against HER2-biotin (human) (UniProt P04626) (assay: yeast surface display, flow cytometry with HER2-biotin / Streptavidin-Alexa Fluor 488).
With B1 the binding was “binds”. In the case of B2, the binding is reported as “binds”. In the case of B3, the binding is reported as “binds”. In the case of B4, the binding is reported as “binds”. With B5 the binding was “binds”.
